Among the data in the supplement of paper PMC10849652 are log2 fold change values, retold here.

Chains of the proteins cited; added tags and fusions are not shown. Lines headed by an entry give the natural chain unless they say otherwise; changes in a name come on top.
UniProt Q53H54: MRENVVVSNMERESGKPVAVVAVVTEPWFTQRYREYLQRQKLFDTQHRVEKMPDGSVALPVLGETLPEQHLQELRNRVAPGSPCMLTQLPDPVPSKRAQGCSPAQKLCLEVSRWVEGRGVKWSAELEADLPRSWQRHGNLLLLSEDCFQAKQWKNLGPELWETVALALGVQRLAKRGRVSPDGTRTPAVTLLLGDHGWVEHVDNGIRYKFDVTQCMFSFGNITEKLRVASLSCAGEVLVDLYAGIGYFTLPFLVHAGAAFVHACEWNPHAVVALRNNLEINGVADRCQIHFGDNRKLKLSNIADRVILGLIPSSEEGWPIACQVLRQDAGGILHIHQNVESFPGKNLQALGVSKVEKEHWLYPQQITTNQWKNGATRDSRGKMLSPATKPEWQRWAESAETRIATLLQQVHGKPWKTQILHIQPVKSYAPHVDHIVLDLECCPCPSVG
UniProt Q7Z4G4: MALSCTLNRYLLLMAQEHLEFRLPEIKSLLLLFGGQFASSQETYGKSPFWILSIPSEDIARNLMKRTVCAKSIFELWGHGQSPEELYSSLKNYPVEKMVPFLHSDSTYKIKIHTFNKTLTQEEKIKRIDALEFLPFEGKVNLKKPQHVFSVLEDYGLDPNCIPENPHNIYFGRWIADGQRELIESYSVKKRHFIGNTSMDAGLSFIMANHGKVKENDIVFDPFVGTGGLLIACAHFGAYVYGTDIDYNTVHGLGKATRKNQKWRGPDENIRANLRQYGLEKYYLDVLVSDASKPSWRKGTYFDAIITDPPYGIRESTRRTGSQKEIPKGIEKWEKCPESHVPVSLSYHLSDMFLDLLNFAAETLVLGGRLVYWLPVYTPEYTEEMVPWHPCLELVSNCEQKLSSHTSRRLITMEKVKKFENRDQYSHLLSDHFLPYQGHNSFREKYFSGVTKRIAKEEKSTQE
UniProt Q86SZ2: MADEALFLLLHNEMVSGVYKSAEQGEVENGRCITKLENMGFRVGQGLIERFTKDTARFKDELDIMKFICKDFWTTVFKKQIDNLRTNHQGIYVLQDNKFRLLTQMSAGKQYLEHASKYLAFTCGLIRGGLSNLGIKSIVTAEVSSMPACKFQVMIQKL
UniProt Q96Q05, whole entry, looked up: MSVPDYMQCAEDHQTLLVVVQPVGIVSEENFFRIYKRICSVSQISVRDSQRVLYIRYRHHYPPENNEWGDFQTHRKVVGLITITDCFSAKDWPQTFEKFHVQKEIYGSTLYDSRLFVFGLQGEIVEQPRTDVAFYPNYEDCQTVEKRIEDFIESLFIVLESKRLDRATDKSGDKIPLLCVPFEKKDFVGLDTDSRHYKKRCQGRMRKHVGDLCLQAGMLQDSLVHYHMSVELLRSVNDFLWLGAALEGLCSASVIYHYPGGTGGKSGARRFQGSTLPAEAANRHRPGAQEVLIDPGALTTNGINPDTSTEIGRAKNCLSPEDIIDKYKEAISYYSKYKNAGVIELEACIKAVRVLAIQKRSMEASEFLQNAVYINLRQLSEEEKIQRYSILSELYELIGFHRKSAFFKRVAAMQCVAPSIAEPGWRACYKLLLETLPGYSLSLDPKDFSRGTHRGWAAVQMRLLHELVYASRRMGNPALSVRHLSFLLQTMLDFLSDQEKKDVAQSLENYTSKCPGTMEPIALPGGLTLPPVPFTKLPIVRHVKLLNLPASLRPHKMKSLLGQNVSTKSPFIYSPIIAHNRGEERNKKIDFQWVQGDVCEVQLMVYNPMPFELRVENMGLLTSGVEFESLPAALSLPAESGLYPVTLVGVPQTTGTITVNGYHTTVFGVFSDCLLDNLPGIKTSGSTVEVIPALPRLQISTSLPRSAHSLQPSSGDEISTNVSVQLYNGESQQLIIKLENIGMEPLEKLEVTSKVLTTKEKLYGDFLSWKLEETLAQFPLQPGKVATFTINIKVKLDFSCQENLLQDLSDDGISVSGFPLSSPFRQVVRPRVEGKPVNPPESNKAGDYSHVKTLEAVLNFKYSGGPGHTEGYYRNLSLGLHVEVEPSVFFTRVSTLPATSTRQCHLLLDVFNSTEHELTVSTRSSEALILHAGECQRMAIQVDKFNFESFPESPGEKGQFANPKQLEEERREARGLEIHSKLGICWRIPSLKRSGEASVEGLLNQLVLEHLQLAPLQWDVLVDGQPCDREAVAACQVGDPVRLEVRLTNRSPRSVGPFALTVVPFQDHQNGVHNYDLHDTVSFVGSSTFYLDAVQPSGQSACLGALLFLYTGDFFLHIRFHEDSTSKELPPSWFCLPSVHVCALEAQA
UniProt Q86TV6: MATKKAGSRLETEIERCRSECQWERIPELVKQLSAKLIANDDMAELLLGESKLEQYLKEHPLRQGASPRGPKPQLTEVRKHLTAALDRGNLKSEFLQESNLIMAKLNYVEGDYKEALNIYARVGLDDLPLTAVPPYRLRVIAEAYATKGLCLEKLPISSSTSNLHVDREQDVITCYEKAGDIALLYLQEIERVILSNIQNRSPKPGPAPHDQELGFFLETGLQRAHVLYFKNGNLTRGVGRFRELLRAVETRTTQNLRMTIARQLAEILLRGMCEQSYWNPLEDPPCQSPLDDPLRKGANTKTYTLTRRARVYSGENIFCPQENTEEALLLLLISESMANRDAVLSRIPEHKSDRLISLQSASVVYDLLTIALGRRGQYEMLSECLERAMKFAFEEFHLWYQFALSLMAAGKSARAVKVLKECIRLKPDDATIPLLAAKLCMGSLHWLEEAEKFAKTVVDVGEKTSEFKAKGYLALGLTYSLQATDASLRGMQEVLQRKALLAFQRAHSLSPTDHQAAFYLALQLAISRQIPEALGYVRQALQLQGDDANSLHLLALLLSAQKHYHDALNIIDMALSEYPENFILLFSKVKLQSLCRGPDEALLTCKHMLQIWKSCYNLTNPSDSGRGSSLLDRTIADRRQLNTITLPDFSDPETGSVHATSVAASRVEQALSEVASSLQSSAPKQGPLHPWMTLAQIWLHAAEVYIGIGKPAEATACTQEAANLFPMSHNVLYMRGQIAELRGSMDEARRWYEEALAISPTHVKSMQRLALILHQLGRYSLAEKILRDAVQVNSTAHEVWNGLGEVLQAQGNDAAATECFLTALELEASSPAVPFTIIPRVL
UniProt P30536, whole entry, looked up: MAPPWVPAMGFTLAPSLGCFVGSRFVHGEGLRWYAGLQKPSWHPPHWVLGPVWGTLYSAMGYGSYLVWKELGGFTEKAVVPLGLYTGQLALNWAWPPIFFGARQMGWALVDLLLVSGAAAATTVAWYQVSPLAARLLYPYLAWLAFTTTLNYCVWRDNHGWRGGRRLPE
UniProt Q15714: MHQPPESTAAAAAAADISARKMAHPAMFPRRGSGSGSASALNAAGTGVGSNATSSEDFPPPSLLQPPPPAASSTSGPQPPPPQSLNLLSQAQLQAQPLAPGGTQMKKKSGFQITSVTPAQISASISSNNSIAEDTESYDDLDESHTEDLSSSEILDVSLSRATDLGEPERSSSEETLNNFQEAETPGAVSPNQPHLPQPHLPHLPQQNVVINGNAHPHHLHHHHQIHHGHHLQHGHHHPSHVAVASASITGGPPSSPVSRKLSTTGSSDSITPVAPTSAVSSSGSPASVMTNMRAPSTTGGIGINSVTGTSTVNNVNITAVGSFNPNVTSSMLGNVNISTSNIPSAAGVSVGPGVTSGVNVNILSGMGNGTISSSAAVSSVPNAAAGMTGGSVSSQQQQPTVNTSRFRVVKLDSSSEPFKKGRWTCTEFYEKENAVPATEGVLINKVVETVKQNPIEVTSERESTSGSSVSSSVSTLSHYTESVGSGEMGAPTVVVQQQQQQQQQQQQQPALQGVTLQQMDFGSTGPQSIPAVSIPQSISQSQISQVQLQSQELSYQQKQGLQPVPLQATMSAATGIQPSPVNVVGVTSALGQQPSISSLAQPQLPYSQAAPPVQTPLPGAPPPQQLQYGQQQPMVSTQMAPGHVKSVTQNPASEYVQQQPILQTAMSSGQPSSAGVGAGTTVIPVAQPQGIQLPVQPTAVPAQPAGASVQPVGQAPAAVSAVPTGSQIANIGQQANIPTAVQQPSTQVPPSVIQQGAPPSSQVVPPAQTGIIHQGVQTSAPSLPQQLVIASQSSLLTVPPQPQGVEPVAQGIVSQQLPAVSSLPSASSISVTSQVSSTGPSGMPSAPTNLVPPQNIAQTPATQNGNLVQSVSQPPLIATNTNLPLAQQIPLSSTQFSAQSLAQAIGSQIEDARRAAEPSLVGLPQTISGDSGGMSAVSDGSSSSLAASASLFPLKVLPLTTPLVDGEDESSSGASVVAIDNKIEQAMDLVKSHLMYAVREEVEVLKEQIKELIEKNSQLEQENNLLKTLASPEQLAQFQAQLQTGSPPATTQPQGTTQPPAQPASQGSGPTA
UniProt Q15642: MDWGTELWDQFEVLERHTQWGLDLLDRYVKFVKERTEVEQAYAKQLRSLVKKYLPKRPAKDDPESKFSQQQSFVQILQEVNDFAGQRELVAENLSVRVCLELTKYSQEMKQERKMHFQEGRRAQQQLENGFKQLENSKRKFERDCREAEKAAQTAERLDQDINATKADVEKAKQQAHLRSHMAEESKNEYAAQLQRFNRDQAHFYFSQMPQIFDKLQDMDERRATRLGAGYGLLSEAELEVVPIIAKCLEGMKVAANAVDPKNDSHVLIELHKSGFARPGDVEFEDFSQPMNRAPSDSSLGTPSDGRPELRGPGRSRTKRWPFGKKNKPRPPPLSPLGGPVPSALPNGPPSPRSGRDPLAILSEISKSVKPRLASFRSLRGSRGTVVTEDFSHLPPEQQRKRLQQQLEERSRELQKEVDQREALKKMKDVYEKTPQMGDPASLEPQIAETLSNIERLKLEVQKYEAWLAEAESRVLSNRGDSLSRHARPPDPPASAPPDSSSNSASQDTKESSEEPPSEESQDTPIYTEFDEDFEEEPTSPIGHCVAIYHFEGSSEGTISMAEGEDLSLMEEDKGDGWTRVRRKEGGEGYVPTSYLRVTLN
UniProt Q13114: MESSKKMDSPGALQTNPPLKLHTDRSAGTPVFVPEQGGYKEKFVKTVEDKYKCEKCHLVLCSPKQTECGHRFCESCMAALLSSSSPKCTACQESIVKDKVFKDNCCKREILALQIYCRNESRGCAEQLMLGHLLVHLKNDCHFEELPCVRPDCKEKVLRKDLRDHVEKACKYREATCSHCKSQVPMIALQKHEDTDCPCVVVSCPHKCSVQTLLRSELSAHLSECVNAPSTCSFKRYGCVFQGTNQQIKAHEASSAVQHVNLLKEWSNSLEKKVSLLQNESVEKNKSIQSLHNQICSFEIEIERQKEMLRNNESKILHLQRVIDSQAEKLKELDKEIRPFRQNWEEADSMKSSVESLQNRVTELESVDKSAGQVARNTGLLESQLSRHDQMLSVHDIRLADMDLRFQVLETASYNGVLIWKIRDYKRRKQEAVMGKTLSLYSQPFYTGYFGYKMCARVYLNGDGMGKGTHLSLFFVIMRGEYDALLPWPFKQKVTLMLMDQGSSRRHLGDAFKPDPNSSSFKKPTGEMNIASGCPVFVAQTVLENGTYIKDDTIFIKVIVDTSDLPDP
UniProt O95857: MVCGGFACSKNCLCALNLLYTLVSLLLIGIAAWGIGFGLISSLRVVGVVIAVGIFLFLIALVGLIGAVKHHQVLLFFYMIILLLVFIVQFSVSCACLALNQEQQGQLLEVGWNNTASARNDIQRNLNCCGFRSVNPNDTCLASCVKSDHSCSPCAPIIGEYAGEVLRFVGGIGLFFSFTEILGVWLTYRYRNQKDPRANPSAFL
UniProt Q9Y296, whole entry, looked up: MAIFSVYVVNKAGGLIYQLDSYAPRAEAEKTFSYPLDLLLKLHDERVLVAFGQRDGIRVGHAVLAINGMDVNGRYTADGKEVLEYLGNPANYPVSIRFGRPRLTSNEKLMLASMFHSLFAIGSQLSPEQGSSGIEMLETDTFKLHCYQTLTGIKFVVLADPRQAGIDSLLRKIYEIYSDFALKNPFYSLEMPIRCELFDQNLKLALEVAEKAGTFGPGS
UniProt Q9H892: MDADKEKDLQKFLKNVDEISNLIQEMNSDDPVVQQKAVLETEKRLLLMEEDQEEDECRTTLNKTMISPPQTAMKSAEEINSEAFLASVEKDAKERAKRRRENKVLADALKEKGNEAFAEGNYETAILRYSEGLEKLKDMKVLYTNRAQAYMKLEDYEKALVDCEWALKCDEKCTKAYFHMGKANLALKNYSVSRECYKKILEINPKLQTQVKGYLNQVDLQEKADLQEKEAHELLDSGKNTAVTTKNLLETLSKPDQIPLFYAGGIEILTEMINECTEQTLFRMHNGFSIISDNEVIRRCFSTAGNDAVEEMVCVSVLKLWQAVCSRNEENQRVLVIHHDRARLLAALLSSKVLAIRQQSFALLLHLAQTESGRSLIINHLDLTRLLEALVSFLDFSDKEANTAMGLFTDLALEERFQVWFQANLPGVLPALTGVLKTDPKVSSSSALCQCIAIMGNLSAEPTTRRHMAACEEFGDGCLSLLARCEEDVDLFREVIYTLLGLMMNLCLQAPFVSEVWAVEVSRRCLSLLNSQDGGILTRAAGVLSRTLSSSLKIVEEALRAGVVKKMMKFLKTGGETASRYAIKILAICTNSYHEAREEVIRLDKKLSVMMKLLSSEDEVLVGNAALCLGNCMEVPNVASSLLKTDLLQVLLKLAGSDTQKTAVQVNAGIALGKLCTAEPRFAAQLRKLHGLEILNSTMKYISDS

This is one part of the list.

Compound in the first assay: C#Cc1cccc(Nc2ncnc3cc(OCCOC)c(OCCOC)cc23)c1 [erlotinib]
Kind of assay: log2 fold change, soluble protein after heating vs DMSO (PISA); higher = thermal stabilisation; K562 lysate, 10 uM; active = over 0.2 and 3.5 SD of the protein, either way, in both replicates (recomputed). In a few lines: (§1)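 The values are log-two fold changes in thermal stability compared with solvent controls and come from duplicates. They were obtained by TMTpro 16plex LC-MS/MS, with channel sums equalised, on the supernatant after 21,000xg for 90 min. That supernatant came from crude K562 extract at 1 mg/mL protein treated with 10 μM compound for 30 min, heated for 3 min across 48°C-58°C, pooled and brought to 0.5% NP-40 at 4°C.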
On to TSSC4 (UniProt Q9Y5U2), for which the log2 fold change is inactive: 0.018.
For the target TRIM44 (UniProt Q96DX7), the log2 fold change is inactive: -0.066.
On the same count and under the same terms, the same measure for TRMT12 (UniProt Q53H54): inactive: 0.065.
Still for that read-out and setting: the same measure for TTC9C (UniProt Q8N5M4): inactive: 0.017.
In the case of TRMT11 (UniProt Q7Z4G4), the log2 fold change was inactive: -0.02.
For the target TRAPPC6B (UniProt Q86SZ2), the log2 fold change was inactive: 0.003.
With TRIM38 (UniProt O00635), the log2 fold change is inactive: 0.
Take TRMT10A (UniProt Q8TBZ6): the log2 fold change is inactive: -0.003.
The same measure, in the same setting: the same measure for TSN (UniProt Q15631): inactive: 0.017.
Still for that read-out and setting: in the case of TRAPPC9 isoform 2 (UniProt Q96Q05) it was inactive: 0.033; in that of TTLL12 (UniProt V9GY16), inactive: 0.144; in that of TTC7B isoform 2 (UniProt Q86TV6), inactive: 0.1.
TSPO (UniProt P30536): the log2 fold change is inactive: -0.101.
In the case of TRAPPC6A isoform 2 (UniProt O75865), the log2 fold change is inactive: 0.018.
The same measure, in the same setting: the same measure for TTC27 (UniProt Q6P3X3): inactive: 0.017.
For the target TSC22D1 (UniProt Q15714), the log2 fold change was inactive: 0.038.
Turning to TSFM (UniProt P43897), the log2 fold change is inactive: -0.013.
The same measure, in the same setting: in the case of TRNAU1AP (UniProt Q9NX07) it was inactive: 0.019; in that of TRIM4 (UniProt Q9C037), inactive: 0.051; in that of TRMT6 (UniProt Q9UJA5), inactive: -0.022.
The same measure, in the same setting: in the case of TRMT1L (UniProt Q7Z2T5) it was inactive: 0.019; in that of TRIM11 (UniProt Q96F44), inactive: 0.005.
Same read-out and setting: in the case of TRPC4AP (UniProt Q8TEL6) it was inactive: 0.009; in that of TRAPPC12 (UniProt Q8WVT3), inactive: -0.049; in that of TSC1 (UniProt Q92574), inactive: 0.047.
As for TTMP isoform 3 (UniProt Q5BVD1), the log2 fold change was inactive: 0.121.
Still for that read-out and setting: in the case of TTI2 (UniProt Q6NXR4) it was inactive: -0.003; in that of TRRAP (UniProt Q9Y4A5), inactive: 0; in that of TRIP10 isoform 2 (UniProt Q15642), inactive: 0.067.
Still for that read-out and setting: in the case of TRIR (UniProt Q9BQ61) it was inactive: -0.017.
Still for that read-out and setting: in the case of TRUB1 (UniProt Q8WWH5) it was inactive: 0.036; in that of TRMT61A (UniProt Q96FX7), inactive: 0.013.
On to TRAF3 (UniProt Q13114), for which the log2 fold change was inactive: -0.004.
As for TSEN15 (UniProt Q8WW01), the log2 fold change is inactive: 0.029.
Still for that read-out and setting: in the case of TRMT112 (UniProt Q9UI30) it was inactive: 0.003; in that of TRMU (UniProt O75648), inactive: -0.024.
On to TSPAN13 (UniProt O95857), for which the log2 fold change was inactive: 0.002.
The same measure, in the same setting: in the case of TRAPPC13 isoform 4 (UniProt A5PLN9) it was inactive: -0.002; in that of TRAPPC4 (UniProt Q9Y296), inactive: -0.004.
On the same count and under the same terms, the same measure for TTC12 isoform 2 (UniProt Q9H892): inactive: 0.066.

Compound in another assay: C/C(=N\NC(=O)C1=CC(=CC=C1)S(=O)(=O)N2CCOCC2)/C3=C(C=CC(=C3)Cl)O
The description is as above. In a few lines: as §1
Consider TSSC4 (UniProt Q9Y5U2), for which the log2 fold change is inactive: -0.115.
The same measure, in the same setting: the same measure for TRIM44 (UniProt Q96DX7): inactive: 0.067.
As to TRMT12 (UniProt Q53H54), the log2 fold change was inactive: 0.01.
The same measure, in the same setting: in the case of TTC9C (UniProt Q8N5M4) it was inactive: -0.036; in that of TRMT11 (UniProt Q7Z4G4), inactive: 0.13.
On the same count and under the same terms, in the case of TRAPPC6B (UniProt Q86SZ2) it was inactive: 0.049; in that of TRIM38 (UniProt O00635), inactive: 0.071.
Still for that read-out and setting: the same measure for TRMT10A (UniProt Q8TBZ6): inactive: -0.26.
For TSN (UniProt Q15631), the log2 fold change was inactive: -0.037.
With TRAPPC9 isoform 2 (UniProt Q96Q05), the log2 fold change was inactive: 0.113.
TTLL12 (UniProt V9GY16): the log2 fold change was inactive: 0.13.
Still for that read-out and setting: in the case of TTC7B isoform 2 (UniProt Q86TV6) it was inactive: 0.017; in that of TSPO (UniProt P30536), inactive: 0.024; in that of TRAPPC6A isoform 2 (UniProt O75865), inactive: 0.095.
The same measure, in the same setting: the same measure for TTC27 (UniProt Q6P3X3): inactive: 0.018; for TSC22D1 (UniProt Q15714): inactive: -0.015; for TSFM (UniProt P43897): inactive: 0.009.
On the same count and under the same terms, in the case of TRNAU1AP (UniProt Q9NX07) it was inactive: 0.083; in that of TRIM4 (UniProt Q9C037), inactive: -0.13; in that of TRMT6 (UniProt Q9UJA5), inactive: -0.036.
Regarding TRMT1L (UniProt Q7Z2T5), the log2 fold change was inactive: -0.034.
Still for that read-out and setting: the same measure for TRIM11 (UniProt Q96F44): inactive: -0.012; for TRPC4AP (UniProt Q8TEL6): inactive: -0.039.
The same measure, in the same setting: in the case of TRAPPC12 (UniProt Q8WVT3) it was inactive: -0.01; in that of TSC1 (UniProt Q92574), inactive: 0.005.
Still for that read-out and setting: in the case of TTMP isoform 3 (UniProt Q5BVD1) it was inactive: -0.173; in that of TTI2 (UniProt Q6NXR4), inactive: 0.037.
For the target TRRAP (UniProt Q9Y4A5), the log2 fold change is inactive: -0.032.
Still for that read-out and setting: in the case of TRIP10 isoform 2 (UniProt Q15642) it was inactive: -0.053.
On to TRIR (UniProt Q9BQ61), for which the log2 fold change is inactive: 0.016.
Same read-out and setting: the same measure for TRUB1 (UniProt Q8WWH5): inactive: 0.065; for TRMT61A (UniProt Q96FX7): inactive: -0.058; for TRAF3 (UniProt Q13114): inactive: 0.028.
On the same count and under the same terms, in the case of TSEN15 (UniProt Q8WW01) it was inactive: 0.007.
The same measure, in the same setting: the same measure for TRMT112 (UniProt Q9UI30): inactive: 0.004; for TRMU (UniProt O75648): inactive: -0.115.
Turning to TSPAN13 (UniProt O95857), the log2 fold change is inactive: 0.053.
Take TRAPPC13 isoform 4 (UniProt A5PLN9): the log2 fold change is inactive: 0.018.
Same read-out and setting: the same measure for TRAPPC4 (UniProt Q9Y296): inactive: -0.09.
For TTC12 isoform 2 (UniProt Q9H892), the log2 fold change was inactive: -0.051.
